Publication PMC8717606
These are yes or no findings as the source states them, for the method shown. In cells and extracts the contact can be indirect. A yes stands for co-enrichment or nearness to the bait. Other partners may have been found. Sequences can lack the tags named with a protein.

By UniProt entry, the sequences of proteins in these tests, tags left out. Where a name states a change or a piece, a line headed by the entry shows the natural chain unless it says otherwise. Chains listed by the source or under a name are the forms on record and can include a tag or linker. Residues count along the entry.
UniProt P24001: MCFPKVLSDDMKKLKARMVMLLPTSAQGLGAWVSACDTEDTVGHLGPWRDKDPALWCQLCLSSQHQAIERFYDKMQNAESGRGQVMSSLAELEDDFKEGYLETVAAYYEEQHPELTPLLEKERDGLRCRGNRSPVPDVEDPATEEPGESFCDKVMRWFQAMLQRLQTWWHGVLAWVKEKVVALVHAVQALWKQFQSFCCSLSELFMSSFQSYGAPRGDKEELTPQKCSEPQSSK
UniProt P33908: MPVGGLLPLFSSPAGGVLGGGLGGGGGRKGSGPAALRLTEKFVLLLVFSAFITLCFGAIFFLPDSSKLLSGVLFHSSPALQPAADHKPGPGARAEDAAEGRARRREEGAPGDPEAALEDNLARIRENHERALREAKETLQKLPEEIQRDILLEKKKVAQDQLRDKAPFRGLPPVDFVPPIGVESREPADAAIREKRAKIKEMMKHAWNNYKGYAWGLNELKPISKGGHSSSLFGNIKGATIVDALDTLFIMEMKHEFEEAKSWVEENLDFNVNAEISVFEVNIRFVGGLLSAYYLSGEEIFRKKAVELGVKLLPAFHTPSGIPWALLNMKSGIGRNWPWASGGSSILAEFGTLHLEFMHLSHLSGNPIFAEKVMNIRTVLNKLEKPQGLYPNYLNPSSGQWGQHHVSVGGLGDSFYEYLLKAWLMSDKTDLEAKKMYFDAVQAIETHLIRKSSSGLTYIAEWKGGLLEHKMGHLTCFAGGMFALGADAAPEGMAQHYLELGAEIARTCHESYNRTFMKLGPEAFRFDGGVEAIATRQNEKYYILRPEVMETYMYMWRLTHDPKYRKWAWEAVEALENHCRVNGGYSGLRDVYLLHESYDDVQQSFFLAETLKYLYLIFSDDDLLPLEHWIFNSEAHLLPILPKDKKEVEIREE
UniProt Q9UI09: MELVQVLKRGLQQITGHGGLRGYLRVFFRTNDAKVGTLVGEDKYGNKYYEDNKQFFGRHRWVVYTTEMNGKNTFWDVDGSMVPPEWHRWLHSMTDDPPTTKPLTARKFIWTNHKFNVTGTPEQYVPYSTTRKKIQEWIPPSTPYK
UniProt Q15904, residues 42-470: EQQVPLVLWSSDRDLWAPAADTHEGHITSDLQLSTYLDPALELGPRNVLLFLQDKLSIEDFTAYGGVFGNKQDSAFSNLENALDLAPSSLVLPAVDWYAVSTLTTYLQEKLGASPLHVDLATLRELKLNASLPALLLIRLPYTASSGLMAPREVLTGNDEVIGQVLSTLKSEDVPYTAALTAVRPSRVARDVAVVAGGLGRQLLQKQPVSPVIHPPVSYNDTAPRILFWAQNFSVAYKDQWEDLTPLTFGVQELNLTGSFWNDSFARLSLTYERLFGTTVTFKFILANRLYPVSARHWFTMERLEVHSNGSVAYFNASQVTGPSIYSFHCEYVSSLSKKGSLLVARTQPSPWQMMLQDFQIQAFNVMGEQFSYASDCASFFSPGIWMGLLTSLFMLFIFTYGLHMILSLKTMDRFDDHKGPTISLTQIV
UniProt Q9Y2Q5: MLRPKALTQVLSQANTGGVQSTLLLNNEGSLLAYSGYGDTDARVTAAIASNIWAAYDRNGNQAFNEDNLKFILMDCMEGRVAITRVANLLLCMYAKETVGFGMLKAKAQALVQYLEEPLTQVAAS
V-type proton ATPase 116 kDa subunit a isoform 1 (Q93050-1, form named): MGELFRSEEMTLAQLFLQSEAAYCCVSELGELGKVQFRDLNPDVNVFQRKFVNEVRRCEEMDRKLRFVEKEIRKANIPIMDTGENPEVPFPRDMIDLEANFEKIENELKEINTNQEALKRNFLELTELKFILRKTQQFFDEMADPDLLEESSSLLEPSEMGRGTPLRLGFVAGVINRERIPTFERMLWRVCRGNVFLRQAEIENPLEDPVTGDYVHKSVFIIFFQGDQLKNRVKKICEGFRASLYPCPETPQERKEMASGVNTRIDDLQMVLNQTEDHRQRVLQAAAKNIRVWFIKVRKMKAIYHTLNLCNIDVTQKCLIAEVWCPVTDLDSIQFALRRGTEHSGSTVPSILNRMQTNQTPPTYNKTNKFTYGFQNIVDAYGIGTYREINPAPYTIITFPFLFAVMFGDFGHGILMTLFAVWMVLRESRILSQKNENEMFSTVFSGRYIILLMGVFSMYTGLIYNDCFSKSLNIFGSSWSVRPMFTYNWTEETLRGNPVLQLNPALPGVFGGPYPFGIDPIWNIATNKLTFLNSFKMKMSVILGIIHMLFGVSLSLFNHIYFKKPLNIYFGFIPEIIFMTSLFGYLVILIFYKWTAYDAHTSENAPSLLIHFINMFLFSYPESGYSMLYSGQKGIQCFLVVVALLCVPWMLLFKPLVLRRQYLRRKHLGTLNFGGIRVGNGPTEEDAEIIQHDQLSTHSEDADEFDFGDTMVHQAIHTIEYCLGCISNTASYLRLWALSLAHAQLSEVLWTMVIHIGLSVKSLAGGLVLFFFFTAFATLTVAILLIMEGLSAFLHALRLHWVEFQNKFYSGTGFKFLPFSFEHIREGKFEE
UniProt Q02127: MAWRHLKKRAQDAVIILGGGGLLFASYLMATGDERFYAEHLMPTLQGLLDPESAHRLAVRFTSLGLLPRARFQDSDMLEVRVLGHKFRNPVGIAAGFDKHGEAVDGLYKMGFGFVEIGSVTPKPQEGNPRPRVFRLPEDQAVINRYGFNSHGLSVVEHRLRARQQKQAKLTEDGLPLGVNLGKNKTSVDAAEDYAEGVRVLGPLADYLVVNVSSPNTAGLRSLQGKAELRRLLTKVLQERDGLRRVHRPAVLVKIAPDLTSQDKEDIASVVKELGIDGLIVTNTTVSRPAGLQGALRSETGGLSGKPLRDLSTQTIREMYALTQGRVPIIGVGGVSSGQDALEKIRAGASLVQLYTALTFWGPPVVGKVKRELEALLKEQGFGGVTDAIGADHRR
UniProt Q09470: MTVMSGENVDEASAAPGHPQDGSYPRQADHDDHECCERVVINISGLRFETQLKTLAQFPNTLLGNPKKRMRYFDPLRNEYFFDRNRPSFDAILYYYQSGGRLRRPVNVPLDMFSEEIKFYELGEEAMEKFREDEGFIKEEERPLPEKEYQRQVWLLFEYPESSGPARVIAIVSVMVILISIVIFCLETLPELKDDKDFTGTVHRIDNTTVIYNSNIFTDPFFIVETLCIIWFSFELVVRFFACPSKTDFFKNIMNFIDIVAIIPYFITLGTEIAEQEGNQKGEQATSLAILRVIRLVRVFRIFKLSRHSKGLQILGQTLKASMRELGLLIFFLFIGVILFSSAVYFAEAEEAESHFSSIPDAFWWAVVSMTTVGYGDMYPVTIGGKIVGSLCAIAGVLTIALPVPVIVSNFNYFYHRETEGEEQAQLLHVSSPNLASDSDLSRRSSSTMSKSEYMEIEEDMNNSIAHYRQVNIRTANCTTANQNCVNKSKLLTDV
UniProt Q9NPD3: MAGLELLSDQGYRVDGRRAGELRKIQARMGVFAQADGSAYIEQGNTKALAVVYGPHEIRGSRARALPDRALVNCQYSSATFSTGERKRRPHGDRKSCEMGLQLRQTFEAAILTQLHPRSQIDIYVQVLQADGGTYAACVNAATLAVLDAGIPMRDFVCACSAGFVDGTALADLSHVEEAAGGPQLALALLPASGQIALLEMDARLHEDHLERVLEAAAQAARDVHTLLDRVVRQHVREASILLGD
UniProt P10321, residues 25-366: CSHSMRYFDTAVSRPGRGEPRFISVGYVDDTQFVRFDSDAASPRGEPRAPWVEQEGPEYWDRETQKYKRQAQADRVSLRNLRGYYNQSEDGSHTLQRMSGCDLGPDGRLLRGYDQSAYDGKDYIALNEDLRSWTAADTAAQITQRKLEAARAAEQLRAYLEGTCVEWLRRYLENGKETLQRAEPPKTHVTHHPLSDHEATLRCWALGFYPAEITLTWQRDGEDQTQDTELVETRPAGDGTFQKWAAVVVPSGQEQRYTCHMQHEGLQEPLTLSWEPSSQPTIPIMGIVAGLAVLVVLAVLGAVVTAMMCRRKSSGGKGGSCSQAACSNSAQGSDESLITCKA

Target: Interleukin 32 (IL32) (Homo sapiens) (UniProt P24001)
Assay: affinity purification with mass spectrometry; endogenous IL-32 precipitated with IL-32 antibody (R&D) coupled to M-270 Dynabeads from pre-cleared lysates (1% CHAPS, 50 mM Tris, 150 mM NaCl) of JJN-3 cells kept 24 h in hypoxia (2% O2); 2 h at 4°C, 4 washes with PBS; IL-32 KO cells as control; 5 replicates

| binding | Molecule |
| --- | --- |
| binds | Major histocompatibility complex, class I, B (HLA-B) (from UniProt P01889 25-362) |
| binds | Proteasome subunit alpha type-3 (from UniProt P25788-1 1-255) |
| binds | Mannosidase alpha class 1A member 1 (MAN1A1) (from UniProt P33908 1-653) |
| binds | NADH:ubiquinone oxidoreductase subunit A12 (NDUFA12) (from UniProt Q9UI09 1-145) |
| binds | ATP binding cassette subfamily B member 6 (Langereis blood group) (ABCB6) (protein, UniProt Q9NP58 1-842) MVTVGNYCEAEGPVGPAWMQDGLSPCFFFTLVPSTRMALGTLALVLALPCRRRERPAGADSLSWGAGPRISPYVLQLLLATLQAALPLAGLAGRVGTARGAPLPSYLLLASVLESLAGACGLWLLVVERSQARQRLAMGIWIKFRHSPGLLLLWTVAFAAENLALVSWNSPQWWWARADLGQQVQFSLWVLRYVVSGGLFVLGLWAPGLRPQSYTLQVHEEDQDVERSQVRSAAQQSTWRDFGRKLRLLSGYLWPRGSPALQLVVLICLGLMGLERALNVLVPIFYRNIVNLLTEKAPWNSLAWTVTSYVFLKFLQGGGTGSTGFVSNLRTFLWIRVQQFTSRRVELLIFSHLHELSLRWHLGRRTGEVLRIADRGTSSVTGLLSYLVFNVIPTLADIIIGIIYFSMFFNAWFGLIVFLCMSLYLTLTIVVTEWRTKFRRAMNTQENATRARAVDSLLNFETVKYYNAESYEVERYREAIIKYQGLEWKSSASLVLLNQTQNLVIGLGLLAGSLLCAYFVTEQKLQVGDYVLFGTYIIQLYMPLNWFGTYYRMIQTNFIDMENMFDLLKEETEVKDLPGAGPLRFQKGRIEFENVHFSYADGRETLQDVSFTVMPGQTLALVGPSGAGKSTILRLLFRFYDISSGCIRIDGQDISQVTQASLRSHIGVVPQDTVLFNDTIADNIRYGRVTAGNDEVEAAAQAAGIHDAIMAFPEGYRTQVGERGLKLSGGEKQRVAIARTILKAPGIILLDEATSALDTSNERAIQASLAKVCANRTTIVVAHRLSTVVNADQILVIKDGCIVERGRHEALLSRGGVYADMWQLQQGQEETSEDTKPQTMER |
| binds | Transmembrane protein 59 (TMEM59) (protein, UniProt Q9BXS4 36-323) EAFDSVLGDTASCHRACQLTYPLHTYPKEEELYACQRGCRLFSICQFVDDGIDLNRTKLECESACTEAYSQSDEQYACHLGCQNQLPFAELRQEQLMSLMPKMHLLFPLTLVRSFWSDMMDSAQSFITSSWTFYLQADDGKIVIFQSKPEIQYAPHLEQEPTNLRESSLSKMSYLQMRNSQAHRNFLEDGESDGFLRCLSLNSGWILTTTLVLSVMVLLWICCATVATAVEQYVPSEKLSIYGDLEFMNEQKLNRYPASSLVVVRSKTEDHEEAGPLPTKVNLAHSEI |
| binds | Transglutaminase 3 (TGM3) (protein, UniProt Q08188 1-693) MAALGVQSINWQTAFNRQAHHTDKFSSQELILRRGQNFQVLMIMNKGLGSNERLEFIVSTGPYPSESAMTKAVFPLSNGSSGGWSAVLQASNGNTLTISISSPASAPIGRYTMALQIFSQGGISSVKLGTFILLFNPWLNVDSVFMGNHAEREEYVQEDAGIIFVGSTNRIGMIGWNFGQFEEDILSICLSILDRSLNFRRDAATDVASRNDPKYVGRVLSAMINSNDDNGVLAGNWSGTYTGGRDPRSWNGSVEILKNWKKSGFSPVRYGQCWVFAGTLNTALRSLGIPSRVITNFNSAHDTDRNLSVDVYYDPMGNPLDKGSDSVWNFHVWNEGWFVRSDLGPSYGGWQVLDATPQERSQGVFQCGPASVIGVREGDVQLNFDMPFIFAEVNADRITWLYDNTTGKQWKNSVNSHTIGRYISTKAVGSNARMDVTDKYKYPEGSDQERQVFQKALGKLKPNTPFAATSSMGLETEEQEPSIIGKLKVAGMLAVGKEVNLVLLLKNLSRDTKTVTVNMTAWTIIYNGTLVHEVWKDSATMSLDPEEEAEHPIKISYAQYEKYLKSDNMIRITAVCKVPDESEVVVERDIILDNPTLTLEVLNEARVRKPVNVQMLFSNPLDEPVRDCVLMVEGSGLLLGNLKIDVPTLGPKEGSRVRFDILPSRSGTKQLLADFSCNKFPAIKAMLSIDVAE |
| binds | LMBR1 domain containing 2 (LMBRD2) (protein, UniProt Q68DH5 1-695) MSGAALGLEIVFVFFLALFLLHRYGDFKKQHRLVIIGTLLAWYLCFLIVFILPLDVSTTIYNRCKHAAANSSPPENSNITGLYATANPVPSQHPCFKPWSYIPDGIMPIFWRVVYWTSQFLTWILLPFMQSYARSGGFSITGKIKTALIENAIYYGTYLLIFGAFLIYVAVNPHLHLEWNQLQTIGIAAANTWGLFLLVLLLGYGLVEIPRSYWNGAKRGYLLMKTYFKAAKLMTEKADAEENLEDAMEEVRKVNESIKYNHPLRKCVDTILKKCPTEYQEKMGRNMDDYEDFDEKHSIYPSEKSLVKLHKQVIYSVQRHRRTQVQWQILLEQAFYLEDVAKNETSATHQFVHTFQSPEPENRFIQYFYNPTFEWYWECLLRPWFYKILAVVLSIFSVIVVWSECTFFSTTPVLSLFAVFIQLAEKTYNYIYIEIACFLSIFFLSICVYSTVFRIRVFNYYYLASHHQTDAYSLLFSGMLFCRLTPPLCLNFLGLTHMDSSISHKNTQPTAYTSIMGSMKVLSFIADGFYIYYPMLVVILCIATYFSLGTRCLNLLGFQQFMGDDDMTSDLVNEGKELIRKEKRKRQRQEEGENRRREWKERYGHNREDSTRNRNIHTDPKESNFSDVNTNRSAFKYTRANNRTERDRIELLQDAEPLDFNAETFTDDPLESESGRYQPGGRYLSMSRSDIFNDV |

More lines, now with the values behind:

| Molecule | binding |
| --- | --- |
| ATPase H+ transporting accessory protein 1 (ATP6AP1) (from UniProt Q15904 42-470) | binds |
| Kinase D-interacting substrate of 220 kDa (from UniProt Q9ULH0-1 1-1771) | binds |
| Late endosomal/lysosomal adaptor, MAPK and MTOR activator 2 (LAMTOR2) (from UniProt Q9Y2Q5 1-125) | binds |
| V-type proton ATPase 116 kDa subunit a isoform 1 (from UniProt Q93050-1 1-831) | binds |
| Dihydroorotate dehydrogenase (quinone) (DHODH) (from UniProt Q02127 1-395) | binds |
| Potassium voltage-gated channel subfamily A member 1 (KCNA1) (from UniProt Q09470 1-495) | binds |
| Exosome component 4 (EXOSC4) (from UniProt Q9NPD3 1-245) | binds |
| Major histocompatibility complex, class I C (HLA-C) (from UniProt P10321 25-366) | binds |
| ATP synthase, H+ transporting, mitochondrial F1 complex, epsilon subunit pseudogene 2 (ATP5EP2) (protein, UniProt Q5VTU8 1-51) MVAYWRQAGLSYIRYSQICAKVVRDALKTEFKANAKKTSGNSVKIVKVKKE | binds |
| ATP binding cassette subfamily B member 10 (ABCB10) (protein, UniProt Q9NRK6 106-738) AGPGAPRLPRARFPGGPAAAAWAGDEAWRRGPAAPPGDKGRLRPAAAGLPEARKLLGLAYPERRRLAAAVGFLTMSSVISMSAPFFLGKIIDVIYTNPTVDYSDNLTRLCLGLSAVFLCGAAANAIRVYLMQTSGQRIVNRLRTSLFSSILRQEVAFFDKTRTGELINRLSSDTALLGRSVTENLSDGLRAGAQASVGISMMFFVSPNLATFVLSVVPPVSIIAVIYGRYLRKLTKVTQDSLAQATQLAEERIGNVRTVRAFGKEMTEIEKYASKVDHVMQLARKEAFARAGFFGATGLSGNLIVLSVLYKGGLLMGSAHMTVGELSSFLMYAFWVGISIGGLSSFYSELMKGLGAGGRLWELLEREPKLPFNEGVILNEKSFQGALEFKNVHFAYPARPEVPIFQDFSLSIPSGSVTALVGPSGSGKSTVLSLLLRLYDPASGTISLDGHDIRQLNPVWLRSKIGTVSQEPILFSCSIAENIAYGADDPSSVTAEEIQRVAEVANAVAFIRNFPQGFNTVVGEKGVLLSGGQKQRIAIARALLKNPKILLLDEATSALDAENEYLVQEALDRLMDGRTVLVIAHRLSTIKNANMVAVLDQGKITEYGKHEELLSKPNGIYRKLMNKQSFISA | binds |
| Immediate early response 3 interacting protein 1 (IER3IP1) (protein, UniProt Q9Y5U9 1-82) MAFTLYSLLQAALLCVNAIAVLHEERFLKNIGWGTDQGIGGFGEEPGIKSQLMNLIRSVRTVMRVPLIIVNSIAIVLLLLFG | binds |
| ELOVL fatty acid elongase 1 (ELOVL1) (protein, UniProt Q9BW60 1-279) MEAVVNLYQEVMKHADPRIQGYPLMGSPLLMTSILLTYVYFVLSLGPRIMANRKPFQLRGFMIVYNFSLVALSLYIVYEFLMSGWLSTYTWRCDPVDYSNSPEALRMVRVAWLFLFSKFIELMDTVIFILRKKDGQVTFLHVFHHSVLPWSWWWGVKIAPGGMGSFHAMINSSVHVIMYLYYGLSAFGPVAQPYLWWKKHMTAIQLIQFVLVSLHISQYYFMSSCNYQYPVIIHLIWMYGTIFFMLFSNFWYHSYTKGKRLPRALQQNGAPGIAKVKAN | binds |
| Chloride voltage-gated channel 5 (CLCN5) (protein, UniProt P51795 1-816) MAMWQGAMDNRGFQQGSFSSFQNSSSDEDLMDIPATAMDFSMRDDVPPLDREVGEDKSYNGGGIGSSNRIMDFLEEPIPGVGTYDDFNTIDWVREKSRDRDRHREITNKSKESTWALIHSVSDAFSGWLLMLLIGLLSGSLAGLIDISAHWMTDLKEGICTGGFWFNHEHCCWNSEHVTFEERDKCPEWNSWSQLIISTDEGAFAYIVNYFMYVLWALLFAFLAVSLVKVFAPYACGSGIPEIKTILSGFIIRGYLGKWTLVIKTITLVLAVSSGLSLGKEGPLVHVACCCGNILCHCFNKYRKNEAKRREVLSAAAAAGVSVAFGAPIGGVLFSLEEVSYYFPLKTLWRSFFAALVAAFTLRSINPFGNSRLVLFYVEFHTPWHLFELVPFILLGIFGGLWGALFIRTNIAWCRKRKTTQLGKYPVIEVLVVTAITAILAFPNEYTRMSTSELISELFNDCGLLDSSKLCDYENRFNTSKGGELPDRPAGVGVYSAMWQLALTLILKIVITIFTFGMKIPSGLFIPSMAVGAIAGRLLGVGMEQLAYYHQEWTVFNSWCSQGADCITPGLYAMVGAAACLGGVTRMTVSLVVIMFELTGGLEYIVPLMAAAMTSKWVADALGREGIYDAHIRLNGYPFLEAKEEFAHKTLAMDVMKPRRNDPLLTVLTQDSMTVEDVETIISETTYSGFPVVVSRESQRLVGFVLRRDLIISIENARKKQDGVVSTSIIYFTEHSPPLPPYTPPTLKLRNILDLSPFTVTDLTPMEIVVDIFRKLGLRQCLVTHNGRLLGIITKKDVLKHIAQMANQDPDSILFN | binds |
